Some of these results come from one statement about several compounds together.
Assay: HPLC stability studies at physiological temperature and pH
Assay type: physicochemical
Conditions: over 3 days
Description: To validate the installation of an N-acetyl as a non-hydrolyzable substitution, the stabilities of both 2′- and 3′-NAADPr were evaluated at physiological temperature and pH using conditions previously described (Borra et al., 2002, J. Biol. Chem. 277: 12632-12641). […] HPLC analysis of both 2′- and 3′-NAADPr using exact conditions indicated negligable decomposition (<1%) over 3 days and confirmed the stability of the acetyl funcitonality to spontaneous hydrolysis at physiological pH.
Reactions were carried out with both analogs (final concentration of 500 μM) in 50 mM Tris (pH 7.5 at 37° C.) containing 1 mM DTT. Samples were incubated at 37° C. over 3 days and four time points were collected (0, 24, 48, and 72 h). Each sample was quenched with H2O containing 0.05% TFA and analyzed by HPLC (analytical C18) using the method described in general procedures. Each trace was integrated (Shimadzu EZStart version 7.2.1 SP1) to determine peak area and analog percentage is shown in the following table 1. Both 2′- and 3′-NAADPr contained trace impurities at 12.9 and 12.5 min respectively and contributed to the observed degradation products visible at 23.3 min in each study.

## CC(=O)NC1C(O)O[C@H](COP(=O)(O)OP(=O)(O)OC[C@H]2O[C@@H](n3cnc4c(N)ncnc43)C(O)C2O)[C@@H]1O (stereo partly shown) [2′-NAADPr, 2′-N-Acetyl-ADP-ribose]
  decomposition: < 1%
